Numbering of substitutions follows the chain as printed. pKd: −log10 of the molar value. For part of these data: The comparison behind a weaker result is the experiment's own reference, which may not be listed here. Protein sequences can lack the tags named with them.
Experiments:
Test in all cases: EMSA
[1] = target: T1, HCF152/3&4 (Arabidopsis thaliana) (UniProt Q9SF38); conditions: G>U>A; 200 nM protein; purified recombinant protein; protein details: N-terminal thioredoxin, C-terminal His; label: 5'-32P
T1 sequence: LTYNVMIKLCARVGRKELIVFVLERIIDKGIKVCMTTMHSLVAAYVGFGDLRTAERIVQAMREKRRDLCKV

[2] = target: T2, HCF152/7&8 (Arabidopsis thaliana) (UniProt Q9SF38); conditions: A>U>G; 200 nM protein; purified recombinant protein; protein details: N-terminal thioredoxin, C-terminal His; label: 5'-32P
T2 sequence: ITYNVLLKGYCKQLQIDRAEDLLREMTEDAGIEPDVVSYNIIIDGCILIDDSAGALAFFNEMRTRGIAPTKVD

[3] = target: T3, HCF152/5&6 (Arabidopsis thaliana) (UniProt Q9SF38); conditions: A>G>U; 200 nM protein; purified recombinant protein; protein details: N-terminal thioredoxin, C-terminal His; label: 5'-32P
T3 sequence (limits assumed): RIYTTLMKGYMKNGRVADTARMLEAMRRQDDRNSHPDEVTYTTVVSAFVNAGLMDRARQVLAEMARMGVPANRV

[4] = target: T4, HCF152/9&10 (Arabidopsis thaliana) (UniProt Q9SF38); conditions: A>G>U; 200 nM protein; purified recombinant protein; protein details: N-terminal thioredoxin, C-terminal His; label: 5'-32P
T4 sequence: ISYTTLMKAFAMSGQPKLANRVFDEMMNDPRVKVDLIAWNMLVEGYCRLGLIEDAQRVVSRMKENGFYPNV

[5] = target: T5, HCF152/2&3 (Arabidopsis thaliana) (UniProt Q9SF38); conditions: A>G>U; 200 nM protein; purified recombinant protein; protein details: N-terminal thioredoxin, C-terminal His; label: 5'-32P
T5 sequence: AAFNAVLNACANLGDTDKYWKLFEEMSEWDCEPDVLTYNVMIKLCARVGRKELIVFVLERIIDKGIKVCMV

[6] = target: T6, 5&6/5-T4E (Arabidopsis thaliana) (UniProt Q9SF38); conditions: position 4 substitution reduces affinity 10-fold or more (position-level statement); purified recombinant protein; protein details: N-terminal thioredoxin, C-terminal His; label: 32P-UTP internal
T6 sequence: T3 sequence (limits assumed) with T4E

[7] = target: T7, 5&6/6-N12R (Arabidopsis thaliana) (UniProt Q9SF38); conditions: Kd=ND; purified recombinant protein; protein details: N-terminal thioredoxin, C-terminal His; label: 32P-UTP internal
T7 sequence: T3 sequence (limits assumed) with N50R

[8] = target: T8, 5&6/5-K12N (Arabidopsis thaliana) (UniProt Q9SF38); conditions: ND; purified recombinant protein; protein details: N-terminal thioredoxin, C-terminal His; label: 32P-UTP internal
T8 sequence: T3 sequence (limits assumed) with K12N

[9] = target: T9, 5&6/5-K8A (Arabidopsis thaliana) (UniProt Q9SF38); conditions: position 8 substitution reduces affinity 10-fold or more (position-level statement); purified recombinant protein; protein details: N-terminal thioredoxin, C-terminal His; label: 32P-UTP internal
T9 sequence: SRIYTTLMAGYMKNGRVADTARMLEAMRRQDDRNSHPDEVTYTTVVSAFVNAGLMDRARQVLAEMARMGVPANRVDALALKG

[10] = target: T10, 5&6/5-K12A (Arabidopsis thaliana) (UniProt Q9SF38); conditions: position 12 substitution reduces affinity 10-fold or more (position-level statement); purified recombinant protein; protein details: N-terminal thioredoxin, C-terminal His; label: 32P-UTP internal
T10 sequence: T9 sequence with A9K, K13A

[11] = target: T11, 5&6/5-T4N (Arabidopsis thaliana) (UniProt Q9SF38); conditions: position 4 substitution reduces affinity 10-fold or more (position-level statement); purified recombinant protein; protein details: N-terminal thioredoxin, C-terminal His; label: 32P-UTP internal
T11 sequence: T3 sequence (limits assumed) with T4N

[12] = target: T12, 5&6/5-K8N (Arabidopsis thaliana) (UniProt Q9SF38); conditions: position 8 substitution reduces affinity 10-fold or more (position-level statement); purified recombinant protein; protein details: N-terminal thioredoxin, C-terminal His; label: 32P-UTP internal
T12 sequence: T9 sequence with A9N

[13] = target: T13, 5&6/5-G9L (Arabidopsis thaliana) (UniProt Q9SF38); conditions: position 9 substitution reduces affinity 10-fold or more (position-level statement); purified recombinant protein; protein details: N-terminal thioredoxin, C-terminal His; label: 32P-UTP internal
T13 sequence: T9 sequence with A9K, G10L

[14] = target: T14, 5&6/5-R1I (Arabidopsis thaliana) (UniProt Q9SF38); conditions: position 1 substitution reduces affinity 10-fold or more (position-level statement); purified recombinant protein; protein details: N-terminal thioredoxin, C-terminal His; label: 32P-UTP internal
T14 sequence: T3 sequence (limits assumed) with R1I

[15] = target: T15, 5&6/5-R1A (Arabidopsis thaliana) (UniProt Q9SF38); conditions: position 1 substitution reduces affinity 10-fold or more (position-level statement); purified recombinant protein; protein details: N-terminal thioredoxin, C-terminal His; label: 32P-UTP internal
T15 sequence: T3 sequence (limits assumed) with R1A

[16] = target: T16, HCF152/6&7 (Arabidopsis thaliana) (UniProt Q9SF38); conditions: ND, below detection limit; purified recombinant protein; protein details: N-terminal thioredoxin, C-terminal His; label: 32P-UTP internal
T16 sequence (limits assumed): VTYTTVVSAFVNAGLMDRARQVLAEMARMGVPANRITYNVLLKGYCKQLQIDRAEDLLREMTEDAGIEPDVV

[17] = target: T17, 5&6/5-G9A (Arabidopsis thaliana) (UniProt Q9SF38); conditions: position 9 substitution reduces affinity 10-fold or more (position-level statement); purified recombinant protein; protein details: N-terminal thioredoxin, C-terminal His; label: 32P-UTP internal
T17 sequence: T9 sequence with A9K, G10A

Sequence | binding result [1] | binding result [2] | binding result [3] | binding result [4] | binding result [5] | binding result [6] | pKd [7] | pKd [8] | binding result [9] | binding result [10] | binding result [11] | binding result [12] | binding result [13] | binding result [14] | binding result [15] | pKd [16] | binding result [17]
AUCGAAAAAAAAAAAAAAAAAAAAAAAAA [LA25] | binds more weakly | – | – | – | – | – | – | – | – | – | – | – | – | – | – | – | –
AUCGUUUUUUUUUUUUUUUUUUUUUUUUU [LU25] | binds more weakly | binds more weakly | binds more weakly | binds more weakly | binds more weakly | – | – | – | – | – | – | – | – | – | – | – | –
CUGGAUGGAAUUUCAGUGAAUUAGACUGAGAAGAAUCUUGAAGUUCUAGCUUUUAGCUCGAUACAAAAAAGUAAAGUAUGCAGGUCUAACAAUUUUAGCCUAUUCUCCUUUGGUAGUUCG [BD120 (petB)] | – | – | – | – | – | binds more weakly | < 5.43 | < 5.43 | binds more weakly | binds more weakly | binds more weakly | binds more weakly | binds more weakly | binds more weakly | binds more weakly | < 5.43 | binds more weakly
